Source: patent publication US20190367445A1, “4-AMINO SUBSTITUTED PHENYLAMIDINE DERIVATIVES AND THEIR USE TO PROTECT CROPS BY FIGHTING UNDESIRED PHYTOPATHOGENIC MICOORGANISMS” (PI INDUSTRIES LTD., priority 2016, published 2019)
Some of these results come from one statement about several compounds together. For at least one compound, name, drawing or mass did not settle the structure. Some compounds share one range, which may span the group rather than tell each member.

Experiments:
[1] = tested on: Rhizoctonia solani (Rice sheath blight/Potato black scurf); assay: In vitro test on Potato Dextrose Agar, radial growth: Rhizoctonia solani; type: cell-based; conditions: 300 ppm, radial growth after seven days, 25° C., 60% relative humidity
[2] = tested on: Botrytis cinerea (Gray mold); assay: In vitro test on Potato Dextrose Agar, radial growth: Botrytis cinerea; type: cell-based; conditions: 300 ppm, radial growth after seven days, 22° C., 90% relative humidity
[3] = tested on: Alternaria solani (early blight of tomato/potato); assay: In vitro test on Potato Dextrose Agar, radial growth: Alternaria solani; type: cell-based; conditions: 300 ppm, radial growth after seven days, 25° C., 60% relative humidity
[4] = tested on: Colletotrichum capsici (anthracnose); assay: In vitro test on Potato Dextrose Agar, radial growth: Colletotrichum capsici; type: cell-based; conditions: 300 ppm, radial growth after seven days, 25° C., 60% relative humidity
[5] = tested on: Septoria lycopersici (Leaf spot of tomato); assay: In vitro test on Potato Dextrose Agar, radial growth: Septoria lycopersici; type: cell-based; conditions: 300 ppm, radial growth after seven days, 25° C., 70% relative humidity
[6] = tested on: Botrytis cinera; assay: Greenhouse preventive test: Botrytis cinera test in tomato; type: in vivo, Botrytis cinera on tomato (bean/chilli plants); conditions: 500 ppm; preventive spray, Botrytis cinera inoculated one day after treatment; disease severity rating
[7] = tested on: Alternaria solani; assay: Greenhouse preventive test: Alternaria solani test in tomato; type: in vivo; conditions: 500 ppm; preventive spray on tomato, Alternaria solani inoculated one day after treatment; disease severity rating

SMILES | control compared to untreated check [1] [%] | control compared to untreated check [2] [%] | control compared to untreated check [3] [%] | control compared to untreated check [4] [%] | control compared to untreated check [5] | Efficacy (% control) compared to untreated [6] | Efficacy (% control) compared to untreated [7]
CCN(C)C=Nc1cc(C)c(N(C)c2ccccc2)cc1Cl [Compound 4] | 70 to 100 | 70 to 100 | 70 to 100 | 70 to 100 | 80-100% | 70-100% | 
CCN(C)C=Nc1cc(C)c(N(C)c2ccc(Cl)cc2)cc1C [Compound 7] | 70 to 100 |  | 70 to 100 | 70 to 100 | 80-100% | 70-100% | 
CCN(C)C=Nc1cc(C)c(N(C)c2ccc(Cl)c(Cl)c2)cc1C [Compound 9] | 70 to 100 | 70 to 100 | 70 to 100 | 70 to 100 | 80-100% | 70-100% | 
CCN(C)C=Nc1cc(C)c(N(C)c2cccc(C)c2)cc1Cl [Compound 11] | 70 to 100 |  | 70 to 100 | 70 to 100 | 80-100% | 70-100% | 
CCN(C)C=Nc1cc(C)c(N(C)c2ccccc2F)cc1C [Compound 36] | 70 to 100 |  | 70 to 100 | 70 to 100 | 80-100% | 70-100% | 
CCN(C)C=Nc1cc(C)c(N(C)c2cccc(F)c2)cc1C [Compound 38] | 70 to 100 | 70 to 100 | 70 to 100 | 70 to 100 | 80-100% | 70-100% | 
CCN(C)C=Nc1cc(C)c(N(C)c2ccc(F)cc2)cc1C [Compound 39] | 70 to 100 |  | 70 to 100 | 70 to 100 | 80-100% | 70-100% | 
CCN(C)C=Nc1cc(C)c(Nc2ccccc2OC)cc1C [Compound 45] | 70 to 100 |  | 70 to 100 |  | 80-100% | 70-100% | 
CCN(C)C=Nc1cc(C)c(Nc2cccc(F)c2)cc1C [Compound 46] | 70 to 100 | 70 to 100 | 70 to 100 | 70 to 100 | 80-100% | 70-100% | 
CCN(C)C=Nc1cc(C)c(Nc2cccc(SC)c2)cc1Cl [Compound 67] | 70 to 100 |  | 70 to 100 |  |  |  | 70-100%
CCN(C)C=Nc1cc(C)c(Nc2ccccc2Br)cc1Cl [Compound 75] | 70 to 100 | 70 to 100 | 70 to 100 | 70 to 100 |  |  | 70-100%
CCN(C)C=Nc1cc(C)c(Nc2cccc(C(F)(F)F)c2)cc1C [Compound 86] | 70 to 100 | 70 to 100 | 70 to 100 | 70 to 100 | 80-100% | 70-100% | 
CCN(C)C=Nc1cc(C)c(Nc2cccc(C(F)(F)F)c2)cc1Cl [Compound 87] | 70 to 100 | 70 to 100 |  |  |  | 70-100% | 
CCN(C)C=Nc1cc(C)c(N(C)c2c(F)cccc2Cl)cc1C [Compound 96] | 70 to 100 |  | 70 to 100 | 70 to 100 |  | 70-100% | 
CCN(C)C=Nc1cc(C)c(Nc2ccc(S(F)(F)(F)(F)F)cc2)cc1C [Compound 97] | 70 to 100 | 70 to 100 | 70 to 100 | 70 to 100 |  | 70-100% | 
CCN(C)C=Nc1cc(C)c(Nc2ccccc2OC(F)(F)F)cc1C [Compound 99] |  | 70 to 100 |  | 70 to 100 | 80-100% | 70-100% | 

SMILES | control compared to untreated check [1] [%] | control compared to untreated check [2] [%] | control compared to untreated check [3] [%] | control compared to untreated check [4] [%] | control compared to untreated check [5] | Efficacy (% control) compared to untreated [6] | Efficacy (% control) compared to untreated [7]
CCN(C)C=Nc1cc(C)c(Nc2ccccc2OC(F)(F)F)cc1Cl [Compound 100] | 70 to 100 | 70 to 100 | 70 to 100 | 70 to 100 |  | 70-100% | 
CCN(C)C=Nc1cc(C)c(Nc2ccc(OC(F)(F)F)cc2)cc1C [Compound 102] | 70 to 100 |  | 70 to 100 | 70 to 100 | 80-100% | 70-100% | 
CCN(C)C=Nc1cc(C)c(Nc2ccc(OC(F)(F)F)cc2)cc1Cl [Compound 103] | 70 to 100 | 70 to 100 | 70 to 100 |  |  | 70-100% | 
CCN(C)C=Nc1cc(C)c(Nc2ccccc2SC(F)(F)F)cc1Cl [Compound 117] | 70 to 100 | 70 to 100 | 70 to 100 | 70 to 100 |  |  | 70-100%
CCN(C)C=Nc1cc(C)c(N(C)c2ccc(SC(F)(F)F)cc2)cc1Cl [Compound 124] | 70 to 100 | 70 to 100 |  |  |  |  | 70-100%
CCN(C)C=Nc1cc(C)c(Nc2ccc(SC)cc2)cc1C [Compound 127] | 70 to 100 |  | 70 to 100 | 70 to 100 |  | 70-100% | 
CCN(C)C=Nc1cc(C)c(N(C)c2cccc(SC(F)(F)F)c2)cc1Cl [Compound 130] | 70 to 100 | 70 to 100 | 70 to 100 |  |  |  | 70-100%
CCN(C)C=Nc1cc(C)c(N(C)c2ccc(SC)cc2)cc1C [Compound 131] | 70 to 100 |  | 70 to 100 | 70 to 100 |  |  | 70-100%
CCN(C)C=Nc1cc(C)c(N(C)c2ccc(SC)cc2)cc1Cl [Compound 132] | 70 to 100 |  | 70 to 100 |  |  |  | 70-100%
CCN(C)C=Nc1cc(C)c(Nc2cccc(S(F)(F)(F)(F)F)c2)cc1C [Compound 133] | 70 to 100 | 70 to 100 | 70 to 100 | 70 to 100 |  | 70-100% | 
CCN(C)C=Nc1cc(C)c(N(C)c2cccc(S(F)(F)(F)(F)F)c2)cc1C [Compound 135] | 70 to 100 | 70 to 100 | 70 to 100 | 70 to 100 | 80-100% | 70-100% | 
CCN(C)C=Nc1cc(C)c(Nc2cccc(SC(F)(F)F)c2)cc1Cl [Compound 139] | 70 to 100 |  | 70 to 100 |  |  |  | 70-100%
CCN(C)C=Nc1cc(C)c(N(C)c2cccc(SC(F)F)c2)cc1Cl [Compound 143] | 70 to 100 | 70 to 100 | 70 to 100 |  |  |  | 70-100%
CCN(C)C=Nc1cc(C)c(N(C)c2ccc(OC(F)F)cc2)cc1Cl [Compound 150] | 70 to 100 | 70 to 100 | 70 to 100 |  |  | 70-100% | 
CCN(C)C=Nc1cc(C)c(N(C)c2ccc(Cl)cc2C(F)(F)F)cc1C [Compound 161] | 70 to 100 | 70 to 100 | 70 to 100 | 70 to 100 | 80-100% | 70-100% | 
CCN(C)C=Nc1cc(C)c(N(C)c2ccc(Cl)cc2C(F)(F)F)cc1Cl [Compound 162] | 70 to 100 | 70 to 100 |  | 70 to 100 |  | 70-100% | 
